This is one part of the list.
Assays:
Assay in all cases: log2 fold change, soluble protein after heating vs DMSO (PISA); higher = thermal stabilisation; K562 lysate, 10 uM; active = over 0.2 and 3.5 SD of the protein, either way, in both replicates (recomputed)
alvocidib = compound: CN1CC[C@H](c2c(O)cc(O)c3c(=O)cc(-c4ccccc4Cl)oc23)[C@H](O)C1 [alvocidib]
Summary of the method: (§1)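 The values are log-two fold changes in thermal stability compared with solvent controls and come from duplicates. They were obtained by TMTpro 16plex LC-MS/MS, with channel sums equalised, on the supernatant after 21,000xg for 90 min. That supernatant came from crude K562 extract at 1 mg/mL protein treated with 10 μM compound for 30 min, heated for 3 min across 48°C-58°C, pooled and brought to 0.5% NP-40 at 4°C.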

Chains of the proteins cited; added tags and fusions are not shown. Lines headed by an entry give the natural chain unless they say otherwise; changes in a name come on top.
UniProt Q8WXF1: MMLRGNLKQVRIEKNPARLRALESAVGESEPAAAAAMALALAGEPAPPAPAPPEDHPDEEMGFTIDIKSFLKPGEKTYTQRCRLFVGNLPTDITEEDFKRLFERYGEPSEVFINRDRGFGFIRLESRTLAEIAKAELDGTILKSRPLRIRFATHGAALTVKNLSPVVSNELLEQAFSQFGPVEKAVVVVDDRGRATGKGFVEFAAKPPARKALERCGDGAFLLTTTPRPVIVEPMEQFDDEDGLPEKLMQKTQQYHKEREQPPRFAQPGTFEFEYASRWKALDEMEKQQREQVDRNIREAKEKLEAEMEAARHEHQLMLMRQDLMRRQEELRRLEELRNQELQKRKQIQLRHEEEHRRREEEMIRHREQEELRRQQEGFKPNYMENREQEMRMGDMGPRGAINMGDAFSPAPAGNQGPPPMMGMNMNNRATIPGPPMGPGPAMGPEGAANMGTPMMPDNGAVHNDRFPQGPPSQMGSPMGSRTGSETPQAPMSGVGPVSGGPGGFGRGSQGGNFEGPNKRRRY
UniProt Q7Z6K3: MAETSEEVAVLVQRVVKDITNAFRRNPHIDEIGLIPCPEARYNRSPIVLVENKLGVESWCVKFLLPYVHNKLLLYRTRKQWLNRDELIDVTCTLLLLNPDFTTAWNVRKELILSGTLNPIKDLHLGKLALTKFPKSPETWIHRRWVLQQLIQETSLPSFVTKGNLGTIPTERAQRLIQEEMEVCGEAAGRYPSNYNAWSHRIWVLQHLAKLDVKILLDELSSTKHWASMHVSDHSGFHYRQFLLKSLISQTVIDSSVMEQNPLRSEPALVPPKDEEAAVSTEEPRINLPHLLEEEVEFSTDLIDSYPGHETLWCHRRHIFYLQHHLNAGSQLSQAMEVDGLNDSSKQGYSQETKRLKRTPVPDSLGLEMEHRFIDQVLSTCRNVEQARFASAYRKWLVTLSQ
UniProt O00233: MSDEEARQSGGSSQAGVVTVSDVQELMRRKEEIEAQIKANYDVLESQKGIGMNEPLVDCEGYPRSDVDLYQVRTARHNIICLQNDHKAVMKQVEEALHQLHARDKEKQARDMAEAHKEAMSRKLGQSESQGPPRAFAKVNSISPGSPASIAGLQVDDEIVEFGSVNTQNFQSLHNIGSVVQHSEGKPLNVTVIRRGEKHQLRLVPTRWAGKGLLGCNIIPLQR

Tubastatin A = compound: CN1CCc2c(c3ccccc3n2Cc2ccc(C(=O)NO)cc2)C1 [Tubastatin A]
Summary of the method: as §1

[1] = compound: CNC(=O)C1=CC=CC=C1NC2=NC(=NC=C2Cl)NC3=C(C=C(C=C3)N4CCOCC4)OC
Summary of the method: as §1

defactinib = compound: CNC(=O)c1ccc(Nc2ncc(C(F)(F)F)c(NCc3nccnc3N(C)S(C)(=O)=O)n2)cc1 [defactinib]
Summary of the method: as §1

[2] = compound: CNc1nc(-c2ccc3c(N)n[nH]c3c2)cc(N2C[C@@H](C(=O)NC3CCCCC3)CC[C@H]2C)n1
Summary of the method: as §1

encorafenib = compound: COC(=O)N[C@@H](C)CNc1nccc(-c2cn(C(C)C)nc2-c2cc(Cl)cc(NS(C)(=O)=O)c2F)n1 [encorafenib]
Summary of the method: as §1

[3] = compound: COC(=O)[C@H](CCSC)NC(=O)C1=C(C=C(C=C1)NC[C@H](CS)N)C2=CC=CC=C2
Summary of the method: as §1

alisertib = compound: COc1cc(Nc2ncc3c(n2)-c2ccc(Cl)cc2C(c2c(F)cccc2OC)=NC3)ccc1C(=O)O [alisertib]
Summary of the method: as §1

[4] = compound: COc1cc2nc(-c3cc(F)ccc3O)nc(N[C@@H]3CNC[C@H]3C(C)(C)O)c2cc1OC
Summary of the method: as §1

gefitinib = compound: COc1cc2ncnc(Nc3ccc(F)c(Cl)c3)c2cc1OCCCN1CCOCC1 [gefitinib]
Summary of the method: as §1

lapatinib = compound: CS(=O)(=O)CCNCc1ccc(-c2ccc3ncnc(Nc4ccc(OCc5cccc(F)c5)c(Cl)c4)c3c2)o1 [lapatinib]
Summary of the method: as §1

pictilisib = compound: CS(=O)(=O)N1CCN(Cc2cc3nc(-c4cccc5[nH]ncc45)nc(N4CCOCC4)c3s2)CC1 [pictilisib]
Summary of the method: as §1

crizotinib = compound: C[C@@H](Oc1cc(-c2cnn(C3CCNCC3)c2)cnc1N)c1c(Cl)ccc(F)c1Cl [crizotinib]
Summary of the method: as §1

[5] = compound: C[C@H](C1=CC=C(C=C1)C(=O)NC2=C3C=CNC3=NC=C2)N
Summary of the method: as §1

duvelisib = compound: C[C@H](Nc1ncnc2nc[nH]c12)c1cc2cccc(Cl)c2c(=O)n1-c1ccccc1 [duvelisib]
Summary of the method: as §1

gandotinib = compound: Cc1cc(Nc2cc(CN3CCOCC3)c3nc(C)c(Cc4ccc(Cl)cc4F)n3n2)n[nH]1 [gandotinib]
Summary of the method: as §1

tozasertib = compound: Cc1cc(Nc2cc(N3CCN(C)CC3)nc(Sc3ccc(NC(=O)C4CC4)cc3)n2)n[nH]1 [tozasertib]
Summary of the method: as §1

doramapimod = compound: Cc1ccc(-n2nc(C(C)(C)C)cc2NC(=O)Nc2ccc(OCCN3CCOCC3)c3ccccc23)cc1 [doramapimod]
Summary of the method: as §1

bafetinib = compound: Cc1ccc(NC(=O)c2ccc(CN3CC[C@H](N(C)C)C3)c(C(F)(F)F)c2)cc1Nc1nccc(-c2cncnc2)n1 [bafetinib]
Summary of the method: as §1

[6] = compound: Cc1cccc(CC(=O)N2CCc3c2ccc(-c2cn(C)c4ncnc(N)c24)c3F)n1
Summary of the method: as §1

Measured: log2 fold change

PSPC1 (UniProt Q8WXF1)
inactive: alvocidib 0.034 | Tubastatin A -0.032 | [1] 0.009 | defactinib 0.032 | [2] 0.055 | encorafenib 0.011 | [3] -0.001 | alisertib -0.004 | [4] -0.007 | gefitinib 0.001 | lapatinib 0.02 | pictilisib -0.019 | crizotinib 0.035 | [5] 0.089 | duvelisib -0.032 | gandotinib -0.02 | tozasertib -0.006 | doramapimod -0.006 | bafetinib 0.067 | [6] -0.021

PTAR1 (UniProt Q7Z6K3)
inactive: alvocidib 0.004 | Tubastatin A 0.006 | [1] 0.027 | defactinib -0.039 | [2] 0.032 | encorafenib -0.041 | [3] 0.11 | alisertib -0.004 | [4] 0.01 | gefitinib -0.01 | lapatinib 0.007 | pictilisib 0.011 | crizotinib -0.032 | [5] -0.019 | duvelisib -0.036 | gandotinib 0.008 | tozasertib -0.089 | doramapimod 0.057 | bafetinib 0.082 | [6] 0

PSMD9 (UniProt O00233)
inactive: alvocidib -0.011 | Tubastatin A -0.007 | [1] 0.038 | defactinib -0.018 | [2] 0.028 | encorafenib -0.013 | [3] -0.036 | alisertib -0.024 | [4] -0.028 | gefitinib -0.02 | lapatinib 0.016 | pictilisib 0.032 | crizotinib -0.007 | [5] -0.099 | duvelisib 0.005 | gandotinib 0.026 | tozasertib -0.023 | doramapimod 0.022 | bafetinib -0.03 | [6] 0.015

PSEN1 (UniProt P49768)
inactive: alvocidib 0.064 | Tubastatin A 0.006 | [1] 0.038 | defactinib -0.01 | [2] 0.116 | encorafenib -0.084 | [3] 0.154 | alisertib -0.064 | [4] 0.023 | gefitinib 0.16 | lapatinib -0.022 | pictilisib -0.017 | crizotinib -0.043 | [5] 0.223 | duvelisib -0.007 | gandotinib -0.091 | tozasertib 0.044 | doramapimod -0.081 | bafetinib 0.021 | [6] -0.085

— the supplement of paper PMC10849652
